Assay results reported in the supplement of paper PMC6078165.

Tested on: MDAMB231
Test: relative JC-1 red fluorescence (viability) vs pre-drug, coculture with fibroblast (fraction); higher = more viable cancer cells
Experimental: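 JC-1 labelled TNBC cells cocultured 1:1 (1,500 cells each) with CellTrace Violet stained primary or stromal fibroblasts in 384-well plates in FluoroBrite medium, treated with one of 42 anticancer drugs at 0.1, 1, 10 or 100 uM. JC-1 red fluorescence (mitochondrial integrity in cancer cells only) was read by plate reader every 8 h for 72 h. Values are normalised to each well's pre-drug value. The stock of one drug was tenfold lower, so its dose labels may be too high.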

CC[C@]1(O)C[C@@H]2CN(CCc3c([nH]c4ccccc34)[C@@](C(=O)OC)(c3cc4c(cc3OC)N(C)[C@H]3[C@@](O)(C(=O)OC)[C@H](OC(C)=O)[C@]5(CC)C=CCN6CC[C@]43[C@@H]65)C2)C1 [Vinblastine]
relative JC-1 red fluorescence
Conditions	8 h	16 h	24 h	32 h	40 h	48 h	56 h	64 h	72 h
0.1 µM, coculture fibroblast: C12385	0.749	0.707	0.617	0.5921	0.5229	0.48	0.4442	0.44274	0.431
0.1 µM, coculture fibroblast: H6013	0.84	0.7979	0.7681	0.755	0.714	0.709	0.691	0.682	0.651
0.1 µM, coculture fibroblast: H6019	0.769	0.722	0.68	0.638	0.59	0.576	0.551	0.558	0.5385
0.1 µM, coculture fibroblast: H6076	0.8381	0.762	0.702	0.672	0.626	0.594	0.5697	0.5691	0.576
0.1 µM, coculture fibroblast: H6231	0.945	0.826	0.743	0.693	0.639	0.598	0.551	0.529	0.506
0.1 µM, coculture fibroblast: HADF	0.859	0.81	0.765	0.729	0.6865	0.656	0.632	0.621	0.586
0.1 µM, coculture fibroblast: HCFa	0.8585	0.803	0.752	0.705	0.639	0.576	0.543	0.508	0.467
0.1 µM, coculture fibroblast: HCPF	0.87543	0.769	0.6999	0.659	0.601	0.564	0.524	0.496	0.4825
0.1 µM, coculture fibroblast: HHSteC	0.87147	0.882	0.848	0.814	0.772	0.722	0.673	0.641	0.588
0.1 µM, coculture fibroblast: HMF	0.846	0.742	0.667	0.624	0.571	0.525	0.496	0.491	0.485
0.1 µM, coculture fibroblast: HPFa	0.947	0.891	0.854	0.795	0.78	0.762	0.698	0.664	0.634
0.1 µM, coculture fibroblast: HUF	0.852	0.7181	0.745	0.625	0.573	0.564	0.516	0.522	0.524
0.1 µM, coculture fibroblast: Hs5	0.839	0.782	0.732	0.691	0.653	0.599	0.572	0.549	0.5415
0.1 µM, coculture fibroblast: Hs27A	0.8907	0.7838	0.756	0.7198	0.65297	0.598	0.576	0.558	0.515
0.1 µM, coculture fibroblast: Hs343T	0.8367	0.738	0.687	0.661	0.613	0.57	0.527	0.515	0.5
0.1 µM, coculture fibroblast: WS1	0.727	0.6718	0.608	0.549	0.499	0.48	0.453	0.463	0.459
1 µM, coculture fibroblast: C12385	0.7605	0.731	0.732	0.69	0.618	0.607	0.576	0.601	0.596
1 µM, coculture fibroblast: H6013	0.8803	0.80783	0.797	0.784	0.743	0.732	0.721	0.722	0.686
1 µM, coculture fibroblast: H6019	0.7688	0.688	0.6971	0.6415	0.619	0.623	0.602	0.633	0.6105
1 µM, coculture fibroblast: H6076	0.834	0.814	0.794	0.783	0.7527	0.731	0.717	0.712	0.713
1 µM, coculture fibroblast: H6231	0.917	0.817	0.741	0.695	0.639	0.613	0.566	0.553	0.524
1 µM, coculture fibroblast: HADF	0.873	0.818	0.795	0.763	0.722	0.695	0.671	0.669	0.639
1 µM, coculture fibroblast: HCFa	0.897	0.844	0.819	0.781	0.736	0.695	0.655	0.629	0.577
1 µM, coculture fibroblast: HCPF	0.9093	0.823	0.766	0.735	0.685	0.649	0.618	0.591	0.568
1 µM, coculture fibroblast: HHSteC	0.872	0.853	0.821	0.785	0.749	0.729	0.678	0.663	0.625
1 µM, coculture fibroblast: HMF	0.92	0.858	0.839	0.822	0.793	0.766	0.739	0.721	0.714
1 µM, coculture fibroblast: HPFa	0.935	0.909	0.858	0.798	0.774	0.74	0.68	0.66	0.6107
1 µM, coculture fibroblast: HUF	0.846	0.739	0.741	0.629	0.567	0.541	0.492	0.483	0.459
1 µM, coculture fibroblast: Hs5	0.867	0.822	0.789	0.75	0.72	0.673	0.6431	0.615	0.6017
1 µM, coculture fibroblast: Hs27A	0.913	0.853	0.804	0.776	0.724	0.668	0.6586	0.639	0.6008
1 µM, coculture fibroblast: Hs343T	0.8874	0.77	0.717	0.68	0.618	0.577	0.526	0.506	0.483
1 µM, coculture fibroblast: WS1	0.708	0.633	0.616	0.54	0.498	0.487	0.456	0.482	0.476
10 µM, coculture fibroblast: C12385	0.7053	0.7137	0.6012	0.64	0.583	0.553	0.506	0.492	0.463
10 µM, coculture fibroblast: H6013	0.874	0.848	0.819	0.8	0.756	0.723	0.706	0.683	0.652
10 µM, coculture fibroblast: H6019	0.749	0.7036	0.637	0.646	0.603	0.581	0.563	0.565	0.547
10 µM, coculture fibroblast: H6076	0.889	0.874	0.827	0.803	0.759	0.732	0.691	0.659	0.653
10 µM, coculture fibroblast: H6231	0.88328	0.8248	0.768	0.731	0.692	0.669	0.637	0.621	0.592
10 µM, coculture fibroblast: HADF	0.8838	0.861	0.835	0.814	0.768	0.714	0.7073	0.6904	0.63
10 µM, coculture fibroblast: HCFa	0.889	0.8639	0.844	0.823	0.764	0.707	0.698	0.659	0.624
10 µM, coculture fibroblast: HCPF	0.898	0.845	0.8001	0.7803	0.738	0.709	0.672	0.635	0.604
10 µM, coculture fibroblast: HHSteC	0.8907	0.8992	0.8612	0.8221	0.7886	0.7489	0.7086	0.688	0.641
10 µM, coculture fibroblast: HMF	0.905	0.857	0.8123	0.7736	0.7311	0.6856	0.6552	0.631	0.601
10 µM, coculture fibroblast: HPFa	0.93009	0.916	0.867	0.812	0.804	0.76	0.7	0.68	0.638
10 µM, coculture fibroblast: HUF	0.841	0.773	0.815	0.733	0.69	0.673	0.627	0.625	0.607
10 µM, coculture fibroblast: Hs5	0.907	0.8782	0.82896	0.7878	0.7416	0.689	0.633	0.597	0.557
10 µM, coculture fibroblast: Hs27A	0.893	0.857	0.829	0.817	0.775	0.706	0.737	0.736	0.701
10 µM, coculture fibroblast: Hs343T	0.914	0.869	0.81	0.778	0.724	0.689	0.633	0.6	0.561
10 µM, coculture fibroblast: WS1	0.719	0.722	0.588	0.612	0.567	0.524	0.471	0.451	0.423
100 µM, coculture fibroblast: C12385	0.654	0.635	0.391	0.238	0.105	0.0709	0.0445	0.0391	0.0321
100 µM, coculture fibroblast: H6013	0.925	0.798	0.525	0.299	0.196	0.168	0.129	0.107	0.071
100 µM, coculture fibroblast: H6019	0.689	0.5876	0.42	0.269	0.174	0.13	0.0863	0.0794	0.0567
100 µM, coculture fibroblast: H6076	0.943	0.758	0.547	0.445	0.365	0.324	0.283	0.249	0.227
100 µM, coculture fibroblast: H6231	0.905	0.91	0.743	0.592	0.383	0.28	0.198	0.175	0.144
100 µM, coculture fibroblast: HADF	0.963	0.882	0.7	0.399	0.218	0.175	0.129	0.111	0.0703
100 µM, coculture fibroblast: HCFa	0.952	0.8999	0.8274	0.615	0.348	0.263	0.199	0.172	0.132
100 µM, coculture fibroblast: HCPF	0.952	0.792	0.591	0.463	0.322	0.254	0.219	0.182	0.156
100 µM, coculture fibroblast: HHSteC	0.942	0.8756	0.686	0.396	0.243	0.202	0.151	0.131	0.0939
100 µM, coculture fibroblast: HMF	0.756	0.929	0.66	0.503	0.329	0.252	0.185	0.157	0.126
100 µM, coculture fibroblast: HPFa	0.959	0.932	0.782	0.511	0.355	0.301	0.238	0.21	0.169
100 µM, coculture fibroblast: HUF	0.759	0.692	0.572	0.38	0.252	0.208	0.154	0.137	0.115
100 µM, coculture fibroblast: Hs5	0.953	0.766	0.578	0.445	0.3336	0.258	0.208	0.17	0.144
100 µM, coculture fibroblast: Hs27A	0.933	0.922	0.869	0.559	0.339	0.285	0.239	0.209	0.165
100 µM, coculture fibroblast: Hs343T	0.776	0.955	0.6904	0.548	0.387	0.309	0.249	0.223	0.1934
100 µM, coculture fibroblast: WS1	0.706	0.642	0.324	0.138	0.066	0.0351	0.0366	0.0286	0.0239

The reference is the same well before dosing, and untreated signal decays as well.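 Fibroblast labels name human fibroblasts: mostly primary ones from tissues such as uterus (C12385, HUF), lung (H6013), bone (Hs27A), adrenal (HADF) and skin (WS1), plus mammary HMF and breast cancer-associated Hs343T. The cancer cells are basal-like or mesenchymal-like triple-negative breast cancer lines. The paper calls a changed response a hit when it shifts by more than 3x the replicate standard deviation. The tissue of the other fibroblasts is not given here.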
